Results taken from patent publication US20130281504A1, “Reduction of Microglia-Mediated Neurotoxicity by KCa3.1 Inhibition” (THE REGENTS OF THE UNIVERSITY OF CALIFORNIA, priority 2010, published 2013).
At least one compound was matched to its structure with a doubt left.

Target: T1, KCa3.1 (Mus musculus, UniProt O89109)
T1 construct: endogenous in cells; host or cells: primary mouse microglia harvested from the astrocyte feeder layer
Experiment: Whole-cell patch-clamp of mouse microglia KCa currents
Format: cell-based
Conditions: 100 nM apamin; FIG. 4B
Description: Microglia, that were “floating off” from their feeding astrocyte layer, were harvested with a pipette, washed, attached to poly-L-lysine coated cover-slips, and then studied in the whole-cell mode of the patch-clamp technique with an EPC-10 HEKA amplifier. The pipette solution contained 145 mM K^+ aspartate, 2 mM MgCl2, 10 mM HEPES, 10 mM K2EGTA and 8.5 mM CaCl2 (1 μM free Ca^2+), pH 7.2, 290 mOsm. To reduce chloride “leak” currents, we used a Na^+ aspartate external solution containing 160 mM Na^+ aspartate, 4.5 mM KCl, 2 CaCl2, 1 mM MgCl2, 5 mM HEPES, pH 7.4, 300 mOsm. K^+ currents were elicited with voltage ramps from −120 to 40 mV of 200 ms duration applied every 10 s. […] Cell capacitance, a direct measurement of cell surface area, was continuously monitored during recordings. KCa3.1 current density was determined by dividing the TRAM-34-sensitive slope conductance by the cell capacitance.

## CC(C)C[C@@H]1NC(=O)[C@H](C)NC(=O)[C@H]([C@@H](C)O)NC(=O)[C@H](CCC(=O)O)NC(=O)[C@@H]2CCCN2C(=O)[C@H](C)NC(=O)[C@H](CCCCN)NC(=O)[C@@H]2CSSC[C@@H](C(=O)N[C@@H](CCC(N)=O)C(=O)N[C@@H](CCC(N)=O)C(=O)N[C@@H](Cc3cnc[nH]3)C(N)=O)NC(=O)[C@H](CCCNC(=N)N)NC(=O)[C@H](CCCNC(=N)N)NC(=O)[C@H](C)NC(=O)[C@H](CSSC[C@H](N)C(=O)N[C@@H](CC(N)=O)C(=O)N2)NC1=O [apamin, reference compound]
  sensitivity of microglia KCa current: insensitive
